# Experimental data from article PMC10641069, “Intra- and inter-molecular regulation by intrinsically-disordered regions governs PUF protein RNA binding” (Nature Communications, 2023).
# The exact form of at least one protein or probe is not confirmed.
# Test system: FBF-2 RBD + LST-1 B peptide
# Assay: EMSA
# Details: 50 uM LST-1 B; EMSA: FBF-2 in 20 mM HEPES pH 7.4, 150 mM NaCl, 0.5 mM TCEP mixed 1:1 with 5 nM final RNA in 10 mM HEPES pH 7.4, 0.01% Tween 20, 0.1 mg/ml BSA, 0.1 mg/ml yeast tRNA; recombinant protein; label: 3'-Cy5
sequence,measurement,value
AUCAUGUGCCAUAC [gld-1 FBEa RNA (EMSA)],Kd,176 nM
